From paper PMC9306183
Results are given in words; binding and its absence hold for the method and conditions named. Binding seen in cells or lysates may run through a third protein. Some entries that bind do so weakly or less than the wild type. For some of these results: Tags and fused reporters may be left off the sequences shown.

By UniProt entry, the sequences of proteins in these tests, tags left out.
UniProt P01106: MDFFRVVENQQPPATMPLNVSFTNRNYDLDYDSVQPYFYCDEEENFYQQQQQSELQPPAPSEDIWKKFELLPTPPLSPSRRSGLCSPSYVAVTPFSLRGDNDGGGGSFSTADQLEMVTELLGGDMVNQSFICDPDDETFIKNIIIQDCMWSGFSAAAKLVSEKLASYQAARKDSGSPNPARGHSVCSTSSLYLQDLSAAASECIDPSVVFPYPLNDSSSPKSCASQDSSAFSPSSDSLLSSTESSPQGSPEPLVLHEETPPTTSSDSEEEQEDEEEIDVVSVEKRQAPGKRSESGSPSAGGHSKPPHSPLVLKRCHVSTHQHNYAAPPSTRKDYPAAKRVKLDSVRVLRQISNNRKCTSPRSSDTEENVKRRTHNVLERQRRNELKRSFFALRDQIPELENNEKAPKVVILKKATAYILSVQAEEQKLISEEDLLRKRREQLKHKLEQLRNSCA
UniProt P63208: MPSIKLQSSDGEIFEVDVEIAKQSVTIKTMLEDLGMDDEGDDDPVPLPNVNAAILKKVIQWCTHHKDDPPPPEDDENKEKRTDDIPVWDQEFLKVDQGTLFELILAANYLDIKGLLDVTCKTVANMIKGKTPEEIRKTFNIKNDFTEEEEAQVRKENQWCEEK

T1: MAGI3 stably expressed in RKO cells (RKO-MAGI3) (UniProt Q5TCQ9)
T1 sequence: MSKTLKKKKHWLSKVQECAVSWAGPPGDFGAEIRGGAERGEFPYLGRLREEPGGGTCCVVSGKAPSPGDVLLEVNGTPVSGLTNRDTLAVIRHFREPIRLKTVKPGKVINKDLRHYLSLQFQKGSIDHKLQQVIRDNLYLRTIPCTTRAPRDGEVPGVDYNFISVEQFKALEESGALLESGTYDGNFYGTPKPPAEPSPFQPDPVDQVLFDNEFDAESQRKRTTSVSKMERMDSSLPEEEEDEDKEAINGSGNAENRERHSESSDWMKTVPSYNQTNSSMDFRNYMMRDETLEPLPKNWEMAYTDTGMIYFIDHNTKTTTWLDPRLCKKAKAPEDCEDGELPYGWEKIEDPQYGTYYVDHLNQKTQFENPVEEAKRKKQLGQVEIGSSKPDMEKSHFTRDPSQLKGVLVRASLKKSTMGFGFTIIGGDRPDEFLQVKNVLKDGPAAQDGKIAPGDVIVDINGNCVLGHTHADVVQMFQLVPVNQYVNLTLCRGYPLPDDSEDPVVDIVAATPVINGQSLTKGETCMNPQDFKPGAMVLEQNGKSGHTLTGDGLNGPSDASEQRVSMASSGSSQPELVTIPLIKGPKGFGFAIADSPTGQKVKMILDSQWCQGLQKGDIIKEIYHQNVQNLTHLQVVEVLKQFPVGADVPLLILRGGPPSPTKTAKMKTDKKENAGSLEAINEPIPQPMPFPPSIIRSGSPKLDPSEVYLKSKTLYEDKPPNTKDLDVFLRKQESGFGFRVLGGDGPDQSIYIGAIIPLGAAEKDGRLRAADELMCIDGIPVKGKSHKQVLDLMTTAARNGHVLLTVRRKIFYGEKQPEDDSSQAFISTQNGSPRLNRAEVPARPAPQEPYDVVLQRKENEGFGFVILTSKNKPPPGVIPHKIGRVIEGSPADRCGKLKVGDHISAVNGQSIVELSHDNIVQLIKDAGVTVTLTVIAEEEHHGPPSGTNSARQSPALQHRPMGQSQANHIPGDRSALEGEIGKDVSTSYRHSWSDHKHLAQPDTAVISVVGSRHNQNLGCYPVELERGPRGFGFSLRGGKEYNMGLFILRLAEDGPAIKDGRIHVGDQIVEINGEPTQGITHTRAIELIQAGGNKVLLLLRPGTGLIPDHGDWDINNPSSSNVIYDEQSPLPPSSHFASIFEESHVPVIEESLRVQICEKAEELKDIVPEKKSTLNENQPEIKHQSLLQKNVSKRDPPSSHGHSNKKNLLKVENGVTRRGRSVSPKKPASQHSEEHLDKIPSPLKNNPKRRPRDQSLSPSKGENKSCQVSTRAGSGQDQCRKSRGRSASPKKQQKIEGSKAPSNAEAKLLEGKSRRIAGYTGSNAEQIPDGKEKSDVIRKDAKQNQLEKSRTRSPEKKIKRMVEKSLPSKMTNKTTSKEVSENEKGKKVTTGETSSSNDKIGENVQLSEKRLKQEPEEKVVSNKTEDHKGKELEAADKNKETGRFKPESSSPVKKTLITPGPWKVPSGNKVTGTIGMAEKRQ


Experiments:
[1] = biological target: T1, MAGI3 stably expressed in RKO cells (RKO-MAGI3); assay: co-IP; RKO-MAGI3 cell lysates immunoprecipitated with anti-MAGI3 antibodies; c-Myc, SKP1 and CUL1 detected by western blot
[2] = biological target: c-Myc, endogenous (human (endogenous in CRC cells)) (UniProt P01106); assay: co-IP; endogenous proteins; CRC cell lysates immunoprecipitated with anti-c-Myc antibodies, MAGI3 detected by western blot; lysis buffer 10 mM Hepes, 50 mM NaCl, 5 mM EDTA, 1 mM benzamidine, 0.5% Triton X-100; 3 h at 4 °C
[3] = biological target: c-Myc, exogenous tagged protein in HEK293 cells (UniProt P01106); assay: co-IP; reciprocal co-IP of exogenous tagged MAGI3 and c-Myc in HEK293 cells; western blot

| binding [1] | Molecule | further results |
| --- | --- | --- |
| binds | SKP1, endogenous in RKO cells (from UniProt P63208 1-163) |  |
| binds | c-Myc, endogenous (from UniProt P01106 1-454) |  |
|  | membrane associated guanylate kinase, WW and PDZ domain containing 3 (MAGI3), endogenous (protein, UniProt Q5TCQ9 1-1481) MSKTLKKKKHWLSKVQECAVSWAGPPGDFGAEIRGGAERGEFPYLGRLREEPGGGTCCVVSGKAPSPGDVLLEVNGTPVSGLTNRDTLAVIRHFREPIRLKTVKPGKVINKDLRHYLSLQFQKGSIDHKLQQVIRDNLYLRTIPCTTRAPRDGEVPGVDYNFISVEQFKALEESGALLESGTYDGNFYGTPKPPAEPSPFQPDPVDQVLFDNEFDAESQRKRTTSVSKMERMDSSLPEEEEDEDKEAINGSGNAENRERHSESSDWMKTVPSYNQTNSSMDFRNYMMRDETLEPLPKNWEMAYTDTGMIYFIDHNTKTTTWLDPRLCKKAKAPEDCEDGELPYGWEKIEDPQYGTYYVDHLNQKTQFENPVEEAKRKKQLGQVEIGSSKPDMEKSHFTRDPSQLKGVLVRASLKKSTMGFGFTIIGGDRPDEFLQVKNVLKDGPAAQDGKIAPGDVIVDINGNCVLGHTHADVVQMFQLVPVNQYVNLTLCRGYPLPDDSEDPVVDIVAATPVINGQSLTKGETCMNPQDFKPGAMVLEQNGKSGHTLTGDGLNGPSDASEQRVSMASSGSSQPELVTIPLIKGPKGFGFAIADSPTGQKVKMILDSQWCQGLQKGDIIKEIYHQNVQNLTHLQVVEVLKQFPVGADVPLLILRGGPPSPTKTAKMKTDKKENAGSLEAINEPIPQPMPFPPSIIRSGSPKLDPSEVYLKSKTLYEDKPPNTKDLDVFLRKQESGFGFRVLGGDGPDQSIYIGAIIPLGAAEKDGRLRAADELMCIDGIPVKGKSHKQVLDLMTTAARNGHVLLTVRRKIFYGEKQPEDDSSQAFISTQNGSPRLNRAEVPARPAPQEPYDVVLQRKENEGFGFVILTSKNKPPPGVIPHKIGRVIEGSPADRCGKLKVGDHISAVNGQSIVELSHDNIVQLIKDAGVTVTLTVIAEEEHHGPPSGTNSARQSPALQHRPMGQSQANHIPGDRSALEGEIGKDVSTSYRHSWSDHKHLAQPDTAVISVVGSRHNQNLGCYPVELERGPRGFGFSLRGGKEYNMGLFILRLAEDGPAIKDGRIHVGDQIVEINGEPTQGITHTRAIELIQAGGNKVLLLLRPGTGLIPDHGDWDINNPSSSNVIYDEQSPLPPSSHFASIFEESHVPVIEESLRVQICEKAEELKDIVPEKKSTLNENQPEIKHQSLLQKNVSKRDPPSSHGHSNKKNLLKVENGVTRRGRSVSPKKPASQHSEEHLDKIPSPLKNNPKRRPRDQSLSPSKGENKSCQVSTRAGSGQDQCRKSRGRSASPKKQQKIEGSKAPSNAEAKLLEGKSRRIAGYTGSNAEQIPDGKEKSDVIRKDAKQNQLEKSRTRSPEKKIKRMVEKSLPSKMTNKTTSKEVSENEKGKKVTTGETSSSNDKIGENVQLSEKRLKQEPEEKVVSNKTEDHKGKELEAADKNKETGRFKPESSSPVKKTLITPGPWKVPSGNKVTGTIGMAEKRQ | binding [2]: binds |
|  | MAGI3, exogenous tagged protein in HEK293 cells (protein, UniProt Q5TCQ9 1-1481) MSKTLKKKKHWLSKVQECAVSWAGPPGDFGAEIRGGAERGEFPYLGRLREEPGGGTCCVVSGKAPSPGDVLLEVNGTPVSGLTNRDTLAVIRHFREPIRLKTVKPGKVINKDLRHYLSLQFQKGSIDHKLQQVIRDNLYLRTIPCTTRAPRDGEVPGVDYNFISVEQFKALEESGALLESGTYDGNFYGTPKPPAEPSPFQPDPVDQVLFDNEFDAESQRKRTTSVSKMERMDSSLPEEEEDEDKEAINGSGNAENRERHSESSDWMKTVPSYNQTNSSMDFRNYMMRDETLEPLPKNWEMAYTDTGMIYFIDHNTKTTTWLDPRLCKKAKAPEDCEDGELPYGWEKIEDPQYGTYYVDHLNQKTQFENPVEEAKRKKQLGQVEIGSSKPDMEKSHFTRDPSQLKGVLVRASLKKSTMGFGFTIIGGDRPDEFLQVKNVLKDGPAAQDGKIAPGDVIVDINGNCVLGHTHADVVQMFQLVPVNQYVNLTLCRGYPLPDDSEDPVVDIVAATPVINGQSLTKGETCMNPQDFKPGAMVLEQNGKSGHTLTGDGLNGPSDASEQRVSMASSGSSQPELVTIPLIKGPKGFGFAIADSPTGQKVKMILDSQWCQGLQKGDIIKEIYHQNVQNLTHLQVVEVLKQFPVGADVPLLILRGGPPSPTKTAKMKTDKKENAGSLEAINEPIPQPMPFPPSIIRSGSPKLDPSEVYLKSKTLYEDKPPNTKDLDVFLRKQESGFGFRVLGGDGPDQSIYIGAIIPLGAAEKDGRLRAADELMCIDGIPVKGKSHKQVLDLMTTAARNGHVLLTVRRKIFYGEKQPEDDSSQAFISTQNGSPRLNRAEVPARPAPQEPYDVVLQRKENEGFGFVILTSKNKPPPGVIPHKIGRVIEGSPADRCGKLKVGDHISAVNGQSIVELSHDNIVQLIKDAGVTVTLTVIAEEEHHGPPSGTNSARQSPALQHRPMGQSQANHIPGDRSALEGEIGKDVSTSYRHSWSDHKHLAQPDTAVISVVGSRHNQNLGCYPVELERGPRGFGFSLRGGKEYNMGLFILRLAEDGPAIKDGRIHVGDQIVEINGEPTQGITHTRAIELIQAGGNKVLLLLRPGTGLIPDHGDWDINNPSSSNVIYDEQSPLPPSSHFASIFEESHVPVIEESLRVQICEKAEELKDIVPEKKSTLNENQPEIKHQSLLQKNVSKRDPPSSHGHSNKKNLLKVENGVTRRGRSVSPKKPASQHSEEHLDKIPSPLKNNPKRRPRDQSLSPSKGENKSCQVSTRAGSGQDQCRKSRGRSASPKKQQKIEGSKAPSNAEAKLLEGKSRRIAGYTGSNAEQIPDGKEKSDVIRKDAKQNQLEKSRTRSPEKKIKRMVEKSLPSKMTNKTTSKEVSENEKGKKVTTGETSSSNDKIGENVQLSEKRLKQEPEEKVVSNKTEDHKGKELEAADKNKETGRFKPESSSPVKKTLITPGPWKVPSGNKVTGTIGMAEKRQ | binding [3]: binds |
